The values below come from paper PMC6399928.

Amino acid sequences for entries named in this document (tags omitted). Residues count along the entry.
UniProt P06396, residues 28-782: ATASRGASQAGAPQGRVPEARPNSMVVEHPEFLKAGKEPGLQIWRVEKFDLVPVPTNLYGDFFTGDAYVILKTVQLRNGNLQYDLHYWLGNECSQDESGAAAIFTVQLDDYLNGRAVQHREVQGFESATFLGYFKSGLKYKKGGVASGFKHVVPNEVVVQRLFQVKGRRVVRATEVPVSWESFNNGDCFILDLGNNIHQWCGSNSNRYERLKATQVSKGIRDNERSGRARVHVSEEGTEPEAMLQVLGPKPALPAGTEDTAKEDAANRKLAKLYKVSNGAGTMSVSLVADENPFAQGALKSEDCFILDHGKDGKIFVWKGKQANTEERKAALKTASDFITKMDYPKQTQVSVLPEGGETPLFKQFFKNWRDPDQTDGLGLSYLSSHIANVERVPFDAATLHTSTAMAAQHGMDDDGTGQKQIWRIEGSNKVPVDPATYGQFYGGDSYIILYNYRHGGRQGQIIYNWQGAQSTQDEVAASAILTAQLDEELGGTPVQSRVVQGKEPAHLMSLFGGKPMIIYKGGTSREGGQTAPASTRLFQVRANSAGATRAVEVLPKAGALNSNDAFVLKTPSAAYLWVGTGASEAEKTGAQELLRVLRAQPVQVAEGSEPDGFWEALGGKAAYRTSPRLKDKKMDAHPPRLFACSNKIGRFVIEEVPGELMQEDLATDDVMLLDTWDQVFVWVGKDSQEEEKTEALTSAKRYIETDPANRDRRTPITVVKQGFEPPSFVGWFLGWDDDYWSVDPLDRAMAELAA
UniProt P21333: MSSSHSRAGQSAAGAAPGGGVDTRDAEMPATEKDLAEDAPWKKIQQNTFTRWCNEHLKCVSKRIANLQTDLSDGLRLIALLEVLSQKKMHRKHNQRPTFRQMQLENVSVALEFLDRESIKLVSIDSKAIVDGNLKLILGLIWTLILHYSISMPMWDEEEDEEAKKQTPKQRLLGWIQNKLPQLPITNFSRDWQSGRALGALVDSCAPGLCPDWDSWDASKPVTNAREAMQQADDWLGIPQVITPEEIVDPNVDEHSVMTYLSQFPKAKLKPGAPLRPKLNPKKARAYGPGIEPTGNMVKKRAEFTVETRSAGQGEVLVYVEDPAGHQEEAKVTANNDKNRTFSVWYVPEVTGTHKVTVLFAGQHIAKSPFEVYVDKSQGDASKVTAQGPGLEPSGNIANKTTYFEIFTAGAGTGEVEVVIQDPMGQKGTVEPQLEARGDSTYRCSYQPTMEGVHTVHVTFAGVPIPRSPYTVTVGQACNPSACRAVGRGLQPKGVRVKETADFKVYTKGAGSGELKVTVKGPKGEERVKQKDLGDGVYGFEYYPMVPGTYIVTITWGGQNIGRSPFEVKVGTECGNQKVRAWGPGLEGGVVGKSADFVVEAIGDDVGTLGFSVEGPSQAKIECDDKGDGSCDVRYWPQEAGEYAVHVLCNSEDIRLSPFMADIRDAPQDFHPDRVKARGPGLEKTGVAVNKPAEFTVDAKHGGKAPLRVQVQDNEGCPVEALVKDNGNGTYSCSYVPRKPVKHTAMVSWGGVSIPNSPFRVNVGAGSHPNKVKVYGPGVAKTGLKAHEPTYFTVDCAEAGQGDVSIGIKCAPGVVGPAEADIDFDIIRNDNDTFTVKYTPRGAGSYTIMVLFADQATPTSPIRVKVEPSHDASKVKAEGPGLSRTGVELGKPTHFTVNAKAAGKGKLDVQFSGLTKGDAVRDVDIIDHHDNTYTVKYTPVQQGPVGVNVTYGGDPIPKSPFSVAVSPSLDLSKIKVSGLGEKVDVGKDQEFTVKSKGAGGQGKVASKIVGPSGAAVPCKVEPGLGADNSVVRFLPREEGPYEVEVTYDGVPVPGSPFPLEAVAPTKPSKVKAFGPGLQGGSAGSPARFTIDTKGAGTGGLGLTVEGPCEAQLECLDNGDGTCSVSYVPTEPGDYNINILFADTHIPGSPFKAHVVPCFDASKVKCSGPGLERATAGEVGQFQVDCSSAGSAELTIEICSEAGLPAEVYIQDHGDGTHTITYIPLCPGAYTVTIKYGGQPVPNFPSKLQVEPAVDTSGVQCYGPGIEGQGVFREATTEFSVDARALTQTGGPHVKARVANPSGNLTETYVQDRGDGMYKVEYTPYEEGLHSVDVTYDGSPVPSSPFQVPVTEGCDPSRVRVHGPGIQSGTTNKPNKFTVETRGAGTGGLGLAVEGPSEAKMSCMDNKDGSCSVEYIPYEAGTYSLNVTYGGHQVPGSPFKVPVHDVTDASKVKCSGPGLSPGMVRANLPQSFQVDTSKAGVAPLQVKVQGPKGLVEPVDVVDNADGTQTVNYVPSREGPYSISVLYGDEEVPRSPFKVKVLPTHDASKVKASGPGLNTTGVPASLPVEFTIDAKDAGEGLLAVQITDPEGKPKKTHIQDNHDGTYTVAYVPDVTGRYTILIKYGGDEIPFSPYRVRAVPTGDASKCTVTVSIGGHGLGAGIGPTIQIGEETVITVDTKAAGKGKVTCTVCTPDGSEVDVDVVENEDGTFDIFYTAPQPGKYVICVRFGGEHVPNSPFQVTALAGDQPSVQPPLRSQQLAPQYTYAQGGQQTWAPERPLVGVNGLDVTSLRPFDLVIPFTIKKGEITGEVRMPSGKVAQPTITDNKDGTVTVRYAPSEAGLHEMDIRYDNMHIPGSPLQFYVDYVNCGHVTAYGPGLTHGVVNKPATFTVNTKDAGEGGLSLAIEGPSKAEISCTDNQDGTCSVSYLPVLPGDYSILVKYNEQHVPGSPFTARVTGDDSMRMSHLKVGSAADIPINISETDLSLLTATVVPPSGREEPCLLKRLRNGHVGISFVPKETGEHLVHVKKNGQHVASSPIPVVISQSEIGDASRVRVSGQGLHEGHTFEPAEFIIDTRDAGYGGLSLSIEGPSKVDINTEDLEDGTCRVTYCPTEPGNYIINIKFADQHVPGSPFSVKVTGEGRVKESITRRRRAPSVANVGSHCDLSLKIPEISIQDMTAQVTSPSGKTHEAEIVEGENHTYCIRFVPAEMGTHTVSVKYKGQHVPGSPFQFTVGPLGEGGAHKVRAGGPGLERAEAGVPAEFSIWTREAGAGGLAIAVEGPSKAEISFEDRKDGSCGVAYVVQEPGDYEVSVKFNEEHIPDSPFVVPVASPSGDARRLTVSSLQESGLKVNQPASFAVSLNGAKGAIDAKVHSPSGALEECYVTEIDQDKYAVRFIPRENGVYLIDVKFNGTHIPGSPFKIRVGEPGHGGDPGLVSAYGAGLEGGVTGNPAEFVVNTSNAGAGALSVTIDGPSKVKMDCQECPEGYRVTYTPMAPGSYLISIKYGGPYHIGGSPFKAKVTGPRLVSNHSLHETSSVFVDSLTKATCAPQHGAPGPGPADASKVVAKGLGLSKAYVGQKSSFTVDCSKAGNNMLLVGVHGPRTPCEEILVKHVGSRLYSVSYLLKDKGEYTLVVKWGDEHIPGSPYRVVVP
UniProt P16070, residues 21-742: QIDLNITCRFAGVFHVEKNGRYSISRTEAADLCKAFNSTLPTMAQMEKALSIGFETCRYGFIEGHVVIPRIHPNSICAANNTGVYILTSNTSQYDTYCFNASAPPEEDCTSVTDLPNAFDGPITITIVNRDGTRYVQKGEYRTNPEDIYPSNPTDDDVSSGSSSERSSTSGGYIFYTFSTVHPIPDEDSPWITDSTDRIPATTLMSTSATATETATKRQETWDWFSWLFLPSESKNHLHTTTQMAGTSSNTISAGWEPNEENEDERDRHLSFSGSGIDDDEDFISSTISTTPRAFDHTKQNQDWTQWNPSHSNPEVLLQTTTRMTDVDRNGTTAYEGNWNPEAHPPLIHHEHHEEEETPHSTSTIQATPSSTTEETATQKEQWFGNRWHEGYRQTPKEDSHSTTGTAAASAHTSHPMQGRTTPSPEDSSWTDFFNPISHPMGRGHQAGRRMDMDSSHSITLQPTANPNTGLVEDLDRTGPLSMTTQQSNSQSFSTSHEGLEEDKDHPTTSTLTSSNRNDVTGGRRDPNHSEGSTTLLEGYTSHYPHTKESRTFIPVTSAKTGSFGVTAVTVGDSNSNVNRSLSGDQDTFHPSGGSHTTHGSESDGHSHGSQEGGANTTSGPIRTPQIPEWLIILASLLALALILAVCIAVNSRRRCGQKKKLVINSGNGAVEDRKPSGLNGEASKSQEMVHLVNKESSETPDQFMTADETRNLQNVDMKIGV
UniProt Q14247: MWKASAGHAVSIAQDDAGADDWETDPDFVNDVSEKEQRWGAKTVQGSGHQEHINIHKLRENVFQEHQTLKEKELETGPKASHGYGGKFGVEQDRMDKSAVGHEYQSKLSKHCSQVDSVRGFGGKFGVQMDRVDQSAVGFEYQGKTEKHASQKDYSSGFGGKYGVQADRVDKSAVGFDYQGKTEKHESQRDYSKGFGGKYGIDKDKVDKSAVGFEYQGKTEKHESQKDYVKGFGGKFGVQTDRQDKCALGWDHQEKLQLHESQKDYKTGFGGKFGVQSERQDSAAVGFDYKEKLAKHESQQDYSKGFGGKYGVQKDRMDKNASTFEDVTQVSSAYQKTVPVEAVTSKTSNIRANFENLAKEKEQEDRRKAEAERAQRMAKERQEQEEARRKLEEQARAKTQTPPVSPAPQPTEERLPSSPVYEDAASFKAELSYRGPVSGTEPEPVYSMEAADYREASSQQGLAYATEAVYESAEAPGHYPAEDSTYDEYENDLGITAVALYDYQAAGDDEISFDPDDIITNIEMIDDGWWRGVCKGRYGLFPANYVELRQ

Results are given in words; binding and its absence hold for the method and conditions named. Binding seen in cells or lysates may run through a third protein. A yes stands for co-enrichment or nearness to the bait. Other partners may have been found.

This assay addresses T1, RNF128 (human) (UniProt Q8TEB7).
T1 sequence: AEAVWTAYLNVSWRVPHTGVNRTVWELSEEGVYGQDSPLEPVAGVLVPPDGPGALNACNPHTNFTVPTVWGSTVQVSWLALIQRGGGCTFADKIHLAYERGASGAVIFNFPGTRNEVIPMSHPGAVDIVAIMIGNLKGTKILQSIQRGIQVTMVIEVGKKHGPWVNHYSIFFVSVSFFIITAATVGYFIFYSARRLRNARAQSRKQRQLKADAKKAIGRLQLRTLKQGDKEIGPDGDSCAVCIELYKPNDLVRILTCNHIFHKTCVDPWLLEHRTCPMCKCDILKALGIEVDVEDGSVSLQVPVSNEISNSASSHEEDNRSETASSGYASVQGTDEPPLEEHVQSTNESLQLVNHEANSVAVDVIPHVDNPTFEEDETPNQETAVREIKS
Briefly: affinity purification with mass spectrometry; Co-IP from lysates of M14-RNF128, A2058-RNF128 and 293T-RNF128 cells with a primary antibody (not named) and protein A/G-Sepharose; immunoprecipitates resolved on 10% gradient gels, Coomassie-stained bands analysed by MS, SEQUEST against the Human International Protein Index database; proteins found in all three cell lines.
In the case of Gelsolin (from UniProt P06396 28-782), the binding result is on record as “binds”.

As for Filamin-A (from UniProt P21333 1-2647), the binding entry was “binds”.

With CD44 (from UniProt P16070 21-742), the binding entry is “binds”.

Turning to “cortactin (CTTN) (from UniProt Q14247 1-550)”, the binding entry is listed as “binds”.
